Assay [1] has as its target T1, EsxHMt Gal4 DNA-binding domain fusion (Mycobacterium tuberculosis) (UniProt P9WNK3).
T1 sequence: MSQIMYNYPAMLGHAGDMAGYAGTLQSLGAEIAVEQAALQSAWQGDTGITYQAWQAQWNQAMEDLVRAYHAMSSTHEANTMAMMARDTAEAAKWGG
Kind of assay: two-hybrid.

Amino acid sequences for entries named in this document (tags omitted). A change or cut given only in a name is not applied to a line headed by its entry. Residues count along the entry.
UniProt P9WIA1: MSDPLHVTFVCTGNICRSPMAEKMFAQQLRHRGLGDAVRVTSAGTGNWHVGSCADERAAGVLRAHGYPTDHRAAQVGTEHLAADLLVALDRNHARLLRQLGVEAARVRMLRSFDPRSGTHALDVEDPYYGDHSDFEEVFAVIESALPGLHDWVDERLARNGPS
UniProt A0QQ44: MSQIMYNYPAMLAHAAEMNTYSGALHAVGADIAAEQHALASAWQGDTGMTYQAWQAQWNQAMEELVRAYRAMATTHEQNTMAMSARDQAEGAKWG
UniProt O14964: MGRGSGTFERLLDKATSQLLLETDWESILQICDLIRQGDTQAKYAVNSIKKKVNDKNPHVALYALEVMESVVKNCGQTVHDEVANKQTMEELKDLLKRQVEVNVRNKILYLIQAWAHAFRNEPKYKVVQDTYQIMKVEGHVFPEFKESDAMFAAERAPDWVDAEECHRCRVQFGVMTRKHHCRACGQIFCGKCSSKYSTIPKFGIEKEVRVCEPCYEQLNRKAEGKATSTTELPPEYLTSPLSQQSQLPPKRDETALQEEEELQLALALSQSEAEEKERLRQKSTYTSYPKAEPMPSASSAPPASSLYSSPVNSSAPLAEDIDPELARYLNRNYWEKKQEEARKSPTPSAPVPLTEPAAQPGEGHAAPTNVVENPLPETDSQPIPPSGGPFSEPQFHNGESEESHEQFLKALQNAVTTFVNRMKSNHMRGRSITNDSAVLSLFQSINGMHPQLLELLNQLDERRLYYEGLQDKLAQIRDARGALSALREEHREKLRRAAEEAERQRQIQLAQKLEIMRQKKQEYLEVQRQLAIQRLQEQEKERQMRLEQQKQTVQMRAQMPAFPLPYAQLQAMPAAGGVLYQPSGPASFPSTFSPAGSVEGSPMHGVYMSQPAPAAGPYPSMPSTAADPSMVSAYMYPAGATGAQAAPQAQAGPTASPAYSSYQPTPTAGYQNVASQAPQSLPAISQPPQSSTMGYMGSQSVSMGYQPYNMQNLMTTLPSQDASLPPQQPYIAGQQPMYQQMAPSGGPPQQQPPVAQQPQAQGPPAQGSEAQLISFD
Hrs-398-777-V5 (not stated (human, mouse or zebrafish cDNA cloned)): residues 398-777 of O14964
UniProt Q99LI8: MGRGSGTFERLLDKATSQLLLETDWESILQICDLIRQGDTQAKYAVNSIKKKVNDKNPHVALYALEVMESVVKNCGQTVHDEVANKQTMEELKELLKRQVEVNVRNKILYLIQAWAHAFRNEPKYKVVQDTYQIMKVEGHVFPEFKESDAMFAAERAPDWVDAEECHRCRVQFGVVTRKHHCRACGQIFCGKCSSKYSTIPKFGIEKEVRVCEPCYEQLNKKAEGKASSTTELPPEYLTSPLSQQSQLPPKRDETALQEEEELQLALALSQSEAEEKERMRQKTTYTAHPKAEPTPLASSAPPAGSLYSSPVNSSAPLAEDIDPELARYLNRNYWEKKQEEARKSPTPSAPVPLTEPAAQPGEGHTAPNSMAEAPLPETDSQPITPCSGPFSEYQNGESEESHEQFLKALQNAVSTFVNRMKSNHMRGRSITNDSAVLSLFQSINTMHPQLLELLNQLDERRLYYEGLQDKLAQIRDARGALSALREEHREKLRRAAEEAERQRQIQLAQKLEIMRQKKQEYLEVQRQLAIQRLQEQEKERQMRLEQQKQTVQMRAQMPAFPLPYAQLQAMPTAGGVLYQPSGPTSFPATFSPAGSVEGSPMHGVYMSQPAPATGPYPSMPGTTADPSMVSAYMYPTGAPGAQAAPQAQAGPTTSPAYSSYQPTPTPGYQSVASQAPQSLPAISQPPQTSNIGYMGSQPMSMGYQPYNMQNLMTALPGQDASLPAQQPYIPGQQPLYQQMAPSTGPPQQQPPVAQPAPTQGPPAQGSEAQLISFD

Assay [2] has as its target PtpA (Mycobacterium tuberculosis) (UniProt P9WIA1). Put plainly: two-hybrid.
In assay [3] the target is EsxHMs Gal4 DNA-binding domain fusion (Mycobacterium smegmatis) (UniProt A0QQ44). Kind of assay: two-hybrid.
Assay [4] has as its target Hrs-398-777-V5 (not stated (human, mouse or zebrafish cDNA cloned)) (UniProt O14964). Kind of assay: co-IP.

No constants are given. Whether binding was seen depends on the method and setting. For part of these data: Binding seen in cells or lysates may run through a third protein. Some binding calls cover weakened binding; strength is not graded here. For part of these data: Sequences can lack the tags named with a protein.

This passage reports binding results from PMC3814348 (PLoS Pathogens, 2013).

As for “mouse Hrs, Gal4 activation domain fusion (from UniProt Q99LI8 1-775)”, in assay [1], the binding entry is on record as “binds”.
“human hepatocyte growth factor-regulated tyrosine kinase substrate (Hgs/Hrs), Gal4 activation domain fusion (from UniProt O14964 1-777)”: the binding entry in assay [1] is reported as “binds”.

B1: Ligand of Numb protein X (LNX1) (protein, UniProt Q8TBB1 1-728)
chain: MNQPESANDPEPLCAVCGQAHSLEENHFYSYPEEVDDDLICHICLQALLDPLDTPCGHTYCTLCLTNFLVEKDFCPMDRKPLVLQHCKKSSILVNKLLNKLLVTCPFREHCTQVLQRCDLEHHFQTSCKGASHYGLTKDRKRRSQDGCPDGCASLTATAPSPEVSAAATISLMTDEPGLDNPAYVSSAEDGQPAISPVDSGRSNRTRARPFERSTIRSRSFKKINRALSVLRRTKSGSAVANHADQGRENSENTTAPEVFPRLYHLIPDGEITSIKINRVDPSESLSIRLVGGSETPLVHIIIQHIYRDGVIARDGRLLPGDIILKVNGMDISNVPHNYAVRLLRQPCQVLWLTVMREQKFRSRNNGQAPDAYRPRDDSFHVILNKSSPEEQLGIKLVRKVDEPGVFIFNVLDGGVAYRHGQLEENDRVLAINGHDLRYGSPESAAHLIQASERRVHLVVSRQVRQRSPDIFQEAGWNSNGSWSPGPGERSNTPKPLHPTITCHEKVVNIQKDPGESLGMTVAGGASHREWDLPIYVISVEPGGVISRDGRIKTGDILLNVDGVELTEVSRSEAVALLKRTSSSIVLKALEVKEYEPQEDCSSPAALDSNHNMAPPSDWSPSWVMWLELPRCLYNCKDIVLRRNTAGSLGFCIVGGYEEYNGNKPFFIKSIVEGTPAYNDGRIRCGDILLAVNGRSTSGMIHACLARLLKELKGRITLTIVSWPGTFL
With B1, in assay [2], the binding result is recorded as “binds”.

B2: EsxGMt Gal4 activation domain fusion (protein, UniProt O53692 1-97)
chain: MSLLDAHIPQLVASQSAFAAKAGLMRHTIGQAEQAAMSAQAFHQGESSAAFQAAHARFVAAAAKVNTLLDVAQANLGEAAGTYVAADAAAASTYTGF
As to B2, the binding entry in assay [3] and in assay [1] was “binds” in each case.

B3: EsxHMt-FLAG (protein, UniProt P9WNK3 1-96)
chain: T1 sequence
For B3, the binding result in assay [4] is recorded as “binds”.
